Measured values published in publication PMC4993430.
No constants are given. Whether binding was seen depends on the method and setting. In cells and extracts the contact can be indirect. A result given as binding can be weak or reduced; the word gives no strength.

Target: T1, Xenopus Mcm10 (Xenopus laevis (endogenous in egg extract)) (UniProt Q5EAW4)
T1 sequence: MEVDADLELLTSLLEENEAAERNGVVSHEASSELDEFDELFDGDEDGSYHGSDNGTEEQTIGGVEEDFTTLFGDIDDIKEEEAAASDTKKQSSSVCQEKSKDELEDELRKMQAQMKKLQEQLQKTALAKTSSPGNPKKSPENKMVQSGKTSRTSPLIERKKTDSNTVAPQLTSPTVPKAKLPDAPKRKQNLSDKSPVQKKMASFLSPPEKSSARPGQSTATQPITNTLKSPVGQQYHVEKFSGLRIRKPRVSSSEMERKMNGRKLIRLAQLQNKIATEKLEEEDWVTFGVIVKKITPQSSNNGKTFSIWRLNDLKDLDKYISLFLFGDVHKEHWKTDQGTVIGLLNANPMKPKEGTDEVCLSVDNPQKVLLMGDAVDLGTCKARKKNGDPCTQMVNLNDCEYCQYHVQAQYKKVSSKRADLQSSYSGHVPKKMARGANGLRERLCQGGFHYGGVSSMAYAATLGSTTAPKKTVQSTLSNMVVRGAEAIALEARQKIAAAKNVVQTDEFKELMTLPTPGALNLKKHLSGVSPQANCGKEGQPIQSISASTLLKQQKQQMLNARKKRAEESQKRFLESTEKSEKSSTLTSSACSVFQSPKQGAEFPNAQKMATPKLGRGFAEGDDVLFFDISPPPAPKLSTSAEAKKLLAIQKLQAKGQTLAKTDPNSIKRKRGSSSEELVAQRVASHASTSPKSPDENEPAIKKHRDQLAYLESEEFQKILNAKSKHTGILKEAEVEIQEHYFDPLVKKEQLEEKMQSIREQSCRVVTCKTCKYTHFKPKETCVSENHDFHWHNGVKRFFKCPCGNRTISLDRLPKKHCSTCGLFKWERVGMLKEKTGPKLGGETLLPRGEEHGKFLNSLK
Test: co-IP; chromatin isolated in S-phase (45 min) from Xenopus egg extract, with or without 50 uM camptothecin; DNA digested with Benzonase, sample sonicated; supernatant immunoprecipitated with Mcm10 antibody on protein G-Dynabeads, 1 h at 4°C; immunoblot

binding	Substance
binds	Nbs1
binds	ATM
binds	Rad17
